# At least one compound was matched to its structure with a doubt left.
# Test: Pharmacokinetics in rats, plasma concentration by fluorimetry
# Type: in vivo, Sprague-Dawley rats
# Procedure: The animal protocol was approved by the Institutional Animal Care and Use Committee at VCU. Adult male Sprague-Dawley rats weighing 250-275 g were acclimatized for over 3 days with free access to standard rat diet and tap water. Animals were then placed on overnight fasting (i.e., without diet, but with free access to water) on a day before the PK studies. Each animal was anesthetized with an IP injection of urethane and an aliquot (0.1 mL) of blood was withdrawn as a prior-to-dosing or time 0 sample from the jugular vein with a use of 0.11 M sodium citrate (0.01 mL) as anti-coagulant. Rats (n=4 or 5) received G2.2 or IIb via IV injection or PO administration, while one animal received G2.2 via IP bolus injection. G2.2 and IIb were dissolved in sterile saline (0.1 mL IV and IP; 0.2 mLs PO). […]
# The concentrations of G2.2 and lipid analogs in plasma were determined by the quantitative fluorimetry assay in which plasma samples were first diluted 2-fold (v/v) with 0.05 M PBS (pH 7.4), then an equal volume of methanol added and the mixture centrifuged at 11,750 g for 5 min. The supernatants were transferred to black 96 well-plates and the fluorescence at 528 nm (G2.2) or 460 nm (lipid analog) (λEX=340 nm) read using a microplate reader. […]
# The PK profile was analyzed using conventional analysis. […]
structure (smiles),measurement,setting,value
O=c1c(OS(=O)(=O)O)c(-c2ccc(OS(=O)(=O)O)c(OS(=O)(=O)O)c2)oc2cc(OS(=O)(=O)O)cc(OCCCOc3cc(OS(=O)(=O)O)cc4oc(-c5ccc(OS(=O)(=O)O)c(OS(=O)(=O)O)c5)c(OS(=O)(=O)O)c(=O)c34)c12 [Compound G2.2],Tmax (time taken to reach Cmax),"IP 200 mg/kg, rat",0.75 h
same,Tmax (time taken to reach Cmax),"PO 200 mg/kg, rats",1.5 h

# From patent publication US12358941B2, “Lipidic analogs of anti-cancer stem cell agent” (VIRGINIA COMMONWEALTH UNIVERSITY, priority 2019, dated 2025)
